# Library screening results

Chains of the proteins cited; added tags and fusions are not shown.
UniProt E9BF75, entry or part of it: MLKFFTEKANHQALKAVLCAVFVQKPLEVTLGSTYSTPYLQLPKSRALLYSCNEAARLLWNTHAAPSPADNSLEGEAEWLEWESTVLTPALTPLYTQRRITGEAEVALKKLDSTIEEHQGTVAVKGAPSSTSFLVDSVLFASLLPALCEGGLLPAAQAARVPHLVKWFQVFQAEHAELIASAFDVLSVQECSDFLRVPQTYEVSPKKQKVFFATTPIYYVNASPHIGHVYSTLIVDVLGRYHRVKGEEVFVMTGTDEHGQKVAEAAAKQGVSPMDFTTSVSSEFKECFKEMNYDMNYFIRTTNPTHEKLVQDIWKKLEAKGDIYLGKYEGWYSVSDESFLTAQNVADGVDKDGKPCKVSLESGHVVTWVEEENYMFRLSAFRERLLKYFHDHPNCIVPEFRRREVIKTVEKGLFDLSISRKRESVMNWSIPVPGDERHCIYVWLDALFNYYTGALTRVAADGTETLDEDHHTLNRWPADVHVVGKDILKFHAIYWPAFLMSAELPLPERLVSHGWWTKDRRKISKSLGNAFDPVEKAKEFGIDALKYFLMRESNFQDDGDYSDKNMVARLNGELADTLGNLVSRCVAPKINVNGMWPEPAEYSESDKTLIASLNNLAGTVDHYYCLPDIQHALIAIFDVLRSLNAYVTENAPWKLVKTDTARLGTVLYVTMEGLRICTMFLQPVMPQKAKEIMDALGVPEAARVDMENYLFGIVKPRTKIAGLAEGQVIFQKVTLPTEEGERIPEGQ

Source: ChEMBL document CHEMBL3988442, “University of Dundee, Small-Polar-MMV Screening Library” (2021).

A: 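Assay on Mycobacterium tuberculosis, filed only as a heat shock assay from Cornell; the read-out is not stated. The concentration is filed as 10 mM, unlikely as a test dose, so the dose is not known. The record gives no direction; compounds that gave an IC50 in retests scored well above the rest, so higher reads as stronger inhibition. About 69,000 compounds were tested under these conditions; 1.4% (about 930) showed 50% or more at least once.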
B: 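Methionyl-tRNA synthetase (putative), Leishmania donovani (UniProt E9BF75). Primary screen of methionyl-tRNA synthetase; the read-out is not stated. The test concentration is not given. Values are per cent inhibition. About 68,000 compounds were tested under these conditions; 0.035% (about 24) showed 50% or more at least once.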
C: 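Whole-cell assay for inhibitors of Mycobacterium tuberculosis growth, labelled Cornell in the record; the read-out is not stated. The concentration is filed as 10 mM, unlikely as a test dose, so the dose is not known. Higher means stronger inhibition (inferred from two other growth screens of the library). Size under these conditions: about 53,000 compounds, about 900 of them at 50% or above in at least one test.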

All values are in %.
The record does not define 0% and 100%; most values in the screen are far below 50% and negative numbers occur (in some assays of this library far below -100).
Compounds were drawn at random from those tested, without regard to their results.
A dash means the value is not listed here; it may have been measured.

{"compound": "CN(C)C(=O)CN1CCCC2(CCN(c3ccc(C#N)cn3)C2)C1", "stereo": "stereo unspecified", "B": 10.95}
{"compound": "O=C(CCC1CCN(C2CCSCC2)CC1)NCC1CCCO1", "stereo": "stereo unspecified", "A": -19.98, "B": 4.061}
{"compound": "Cc1nc(CN2CCCC(NCC(=O)Nc3cccnc3)C2)no1", "stereo": "stereo unspecified", "A": 7.245, "B": 11.34, "C": 9.133}
{"compound": "Cn1cc(CN2CCS(=O)(=O)C(C)(C)C2)cn1", "A": 7.39, "B": 19.68, "C": 2.701}
{"compound": "O=C(Cc1ccc2c(c1)OCCO2)NC1CCN(CC(F)F)CC1", "A": -38.55, "B": 16.6, "C": 9.043}
{"compound": "CC(C)c1nn(C)c(N(C)C)c1CNC1CCc2cc(F)ccc21.Cl", "stereo": "stereo unspecified", "A": 7.996}
{"compound": "CN(C)C(=O)Cc1nc(CN2CCCCC2Cn2cncn2)cs1", "stereo": "stereo unspecified", "A": -6.5, "B": 10.66, "C": -9.682}
{"compound": "CCc1cc(N(C)Cc2noc(CC(C)C)n2)ncn1", "A": -16.51, "B": 1.305}
{"compound": "COc1cccc(CN2CCCCC2CN2CCOCC2)c1F", "stereo": "stereo unspecified", "A": -14.21, "B": 12.45}
{"compound": "Fc1cnc(N2CCn3cc(CNc4ccccn4)nc3C2)nc1", "B": 13.81}
{"compound": "CCOC(=O)N1CCC(NC(=O)Nc2cccnc2OCC)CC1", "A": -25.08, "B": 22.95}
{"compound": "Cc1cc(CN(C)C(=O)NC(C)c2nncn2C)no1", "stereo": "stereo unspecified", "A": -2.461, "B": 8.85, "C": -22.74}
{"compound": "[H][C@@]12CCN(C(=O)c3ccccc3)C[C@@]1([H])O[C@@H](c1nnc(C3CC3)o1)C2", "A": 57.91, "C": -4.544}
{"compound": "O=C(O)C(F)(F)F.[H][C@]12CCC[C@@]1(COCc1ccncc1)CN(C(=O)c1ccccc1)C2", "A": -20.32, "C": -13.75}
{"compound": "OC1CCCOC12CCN(CCCOc1ccccc1F)CC2", "stereo": "stereo unspecified", "A": 18.56, "B": 9.688, "C": 3.417}
{"compound": "O=C1N(c2ccsc2)CCC12CCCN(c1ccccn1)C2", "stereo": "stereo unspecified", "A": -2.946, "B": 9.384, "C": 5.684}
{"compound": "Cc1nn(C)c2nc(N3CCC(C(O)c4nccn4C)CC3)sc12", "stereo": "stereo unspecified", "A": -28.68, "B": 12.85, "C": -7.236}
{"compound": "COc1cc(CN2CCCC[C@]3(C)NC(=O)CC[C@H]23)ccc1F", "B": 14.15}
{"compound": "CCOCc1nc2c(c(N3CC=CC3)n1)CCN(CC1CC1)CC2", "A": -8.571, "B": 9.536, "C": -14.44}
{"compound": "CCn1nc(C(C)C)cc1C(=O)N1CC(OCc2ccccc2F)C1", "A": -6.409, "B": 16}
{"compound": "CNS(=O)(=O)CC(=O)NCc1cc2c(s1)CCC(C)(C)C2", "A": -39.18, "B": 14.8, "C": 6.602}
{"compound": "CC(=O)N1CC(c2ncn(C(C)C)n2)c2cc(C(=O)NC(C)C)ccc21", "stereo": "stereo unspecified", "A": 11.63, "B": 10.64, "C": -12.87}
{"compound": "CC(=O)NC1(C(=O)N2CCCN(c3cccnn3)CC2)CCCCC1", "A": -0.8256, "B": 10.31}
{"compound": "COCC1CCCCN1Cc1nc(-c2ccoc2)oc1C", "stereo": "stereo unspecified", "A": 7.522, "B": 16.72, "C": 12.9}
{"compound": "O=C(NC1CC1)[C@@H]1CCO[C@@H]2CCN(C3CCOCC3)C[C@H]21", "B": 11.81}
{"compound": "Cc1noc2nc(C3CCN(Cc4cccnc4)CC3)cc(C(F)F)c12.Cl", "A": 0.8061, "C": 5.538}
{"compound": "COc1ccc(CC(C)(O)CNC(=O)Cc2cccs2)cc1", "stereo": "stereo unspecified", "A": 3.234, "B": -42.75, "C": -8.768}
{"compound": "CC(c1nc(-c2ccccc2)no1)N1CC(n2cccn2)C1", "stereo": "stereo unspecified", "A": 4.356, "B": 13.65, "C": 32.83}
{"compound": "CN(Cc1cncnc1)[C@H]1CN(C(=O)c2ccc[nH]2)[C@@H]2CCCO[C@@H]21", "B": 11.37}
{"compound": "CCC(CNC(=O)COC)Oc1cccc(F)c1", "stereo": "stereo unspecified", "A": 14.28, "B": 3.237, "C": 2.205}
{"compound": "CCCC1(CO)CCCN(C(=O)CN2CCN(CC)CC2)C1", "stereo": "stereo unspecified", "A": 4.442, "B": 14.24, "C": -4.299}
{"compound": "Cn1ccnc1CN1CCN(Cc2ccccc2C#N)CC1", "A": -8.021, "B": 17.32, "C": 19.06}
{"compound": "Cc1nsc(NC(=O)N2CCN(Cc3ccc(F)cc3)C(=O)C2)n1", "A": 4.792, "B": 9.63, "C": 13.52}
{"compound": "CN(C)S(=O)(=O)N1CCC(C(O)c2ccc(Cl)cc2)CC1", "stereo": "stereo unspecified", "A": -6.405, "B": 19.76, "C": 24.17}
{"compound": "Cc1cccc(CN2Cc3[nH]nc(COCCO)c3C2)n1.O=C(O)C(F)(F)F", "A": -23.12, "C": 6.172}
{"compound": "COc1ccccc1OC1(C(=O)O)CCN(c2nc(C)cnc2C)CC1", "A": 11.88, "B": 22.19, "C": -2.876}
{"compound": "NS(=O)(=O)c1ccc(NC(=O)CSc2ccc3c(c2)CCC3)cc1", "A": -3.004, "B": 9.524, "C": 25.73}

3 of the entries, repeated:

compound	A	B	C
CC(C)c1nn(C)c(N(C)C)c1CNC1CCc2cc(F)ccc21.Cl (stereo unspecified)	7.996	-	-
CCC(CNC(=O)COC)Oc1cccc(F)c1 (stereo unspecified)	14.28	3.237	2.205
CCCC1(CO)CCCN(C(=O)CN2CCN(CC)CC2)C1 (stereo unspecified)	4.442	14.24	-4.299